# PubChem BioAssay AID686943 – Drosophila RNAi Screening Center | 2013
# Purpose: 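Fly genes whose loss alters ERK activation after insulin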 (primary screen)
# Cells: Drosophila S2R+ haemocyte-like cells expressing YFP-tagged ERK (Rolled)
# Reagent: long dsRNA against Drosophila genes
# Conditions: insulin stimulation versus unstimulated cells; dose and duration not given
# Measured: 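Per-plate z-scores of phospho-ERK immunostaining normalised to YFP-tagged ERK, measured with and without insulin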
# Scale: replicate 1, z-score of dpERK with insulin and replicate 2, z-score of dpERK with insulin: higher = more active ERK per ERK-YFP after insulin; replicate 1, z-score of dpERK under basal conditions: higher = more basal active ERK per ERK-YFP; replicate 1, z-score of ERK-YFP with insulin: higher = more YFP-tagged ERK signal
# The deposit covers about 23,000 reagents; shown is an unselected part of those that have a named target and a result. 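Extra replicates exist only for a retested subset of genes; insulin dose and duration not given; both raised and lowered dpERK matter.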 A plus sign joins genes that one reagent is predicted to hit. The record does not give: the amount of reagent, the time to read-out.
predicted target,amplicon,"replicate 1, z-score of dpERK with insulin","replicate 2, z-score of dpERK with insulin","replicate 1, z-score of dpERK under basal conditions","replicate 1, z-score of ERK-YFP with insulin"
CG42826,DRSC10682,-0.65,0.68,-0.13,-0.04
CG13599,DRSC14602,-0.1,0,-0.38,-0.12
tweek,DRSC02433,-0.44,-0.32,1.27,0.49
tweek,DRSC02434,-1.19,-0.67,-0.35,-0.14
tweek,DRSC02785,-0.54,0.83,-0.2,0.37
CG42818,DRSC01963,0.76,0.49,-0.42,0
CG31612,DRSC03697,0.84,1.07,0.63,-0.03
CG31612,DRSC03698,0.41,1.21,-1.14,-0.05
CG2104,DRSC12304,0.59,0.53,-0.69,-0.51
Nek2,DRSC18124,1.18,0.62,1.92,0.03
fz (frizzled),DRSC11348,0.11,0,0.16,0.89
Trpgamma (Transient receptor potential cation channel gamma),DRSC03626,0.8,-0.35,0.32,0.65
RYBP (Ring and YY1 Binding Protein),DRSC04117,0.19,-0.03,-1.29,-0.53
Obp59a (Odorant-binding protein 59a),DRSC04160,-0.16,0.53,-0.52,0.26
CG17271,DRSC15210,0.27,-0.19,0.16,0.13
CG17271,DRSC22629,-1.35,-1.6,-1.72,-2.34
CG6282,DRSC10616,0.92,-0.63,-0.2,-0.2
Mvd (Mevalonate diphosphate decarboxylase),DRSC20096,-0.57,-0.23,-0.31,-0.17
CG1722,DRSC20547,0.02,0.07,-0.43,0.38
CG2063,DRSC06811,1.53,0.61,0.8,-0.77
CG33775,DRSC05353,-1.66,-0.89,-1.47,0.38
CG32436,DRSC11683,-1.54,0.17,1.56,0.6
CG32436,DRSC11796,-0.69,-0.31,-0.95,0.7
hwt (heavyweight),DRSC19386,2.79,2.05,2.26,-3.3
hwt (heavyweight),DRSC19695,0.01,0,0.84,-0.19
CG17776,DRSC18136,-0.08,0,0.44,0.39
CG34234 + Dh44-R2,DRSC07278,0.34,-0.3,3.75,-0.37
CG10041,DRSC14179,-0.21,-0.07,1.07,0.72
CG33191 + Pif1B,DRSC12706,0.06,-0.67,0.85,0.91

Continued, starting with the last 8 of the part before.
predicted target,amplicon,"replicate 1, z-score of dpERK with insulin","replicate 2, z-score of dpERK with insulin","replicate 1, z-score of dpERK under basal conditions","replicate 1, z-score of ERK-YFP with insulin"
CG32436,DRSC11683,-1.54,0.17,1.56,0.6
CG32436,DRSC11796,-0.69,-0.31,-0.95,0.7
hwt (heavyweight),DRSC19386,2.79,2.05,2.26,-3.3
hwt (heavyweight),DRSC19695,0.01,0,0.84,-0.19
CG17776,DRSC18136,-0.08,0,0.44,0.39
CG34234 + Dh44-R2,DRSC07278,0.34,-0.3,3.75,-0.37
CG10041,DRSC14179,-0.21,-0.07,1.07,0.72
CG33191 + Pif1B,DRSC12706,0.06,-0.67,0.85,0.91
CG15765,DRSC18071,-1.6,-2.44,-1.6,0.78
CG18636,DRSC02685,0.63,0.21,0.83,0.02
18w (18 wheeler),DRSC05029,0.16,-0.03,-0.49,0.06
CG42365,DRSC04266,-0.1,-0.51,0.01,0.35
CG5033,DRSC07410,0.34,0.54,-0.29,-0.08
Samuel,DRSC02156,-1.18,-1.28,-0.72,-1.28
Samuel,DRSC02401,-1.86,-1.91,-1.9,-0.56
Samuel,DRSC02402,0.2,0.01,1.14,0.1
Samuel,DRSC21731,-0.69,-0.32,0.46,-0.18
CG5515,DRSC15825,0.32,-0.24,0.29,0.97
CG6576,DRSC10663,0.2,0.21,-0.35,-0.26
Gr59f (Gustatory receptor 59f),DRSC04499,-0.21,0.02,-0.03,0.13
CG17325 + CG42305,DRSC02602,0.26,0.1,1.11,-0.53
btsz (bitesize),DRSC14982,-0.23,-3.42,-0.66,2.4
btsz (bitesize),DRSC15222,-0.54,-3.21,-1.3,1.73
btsz (bitesize),DRSC15320,4.07,0.49,-0.47,-2.12
btsz (bitesize),DRSC16231,0.2,-1.57,2.49,-0.67
Rpt2 (Regulatory particle triple-A ATPase 2),DRSC16799,-6.98,-5,-4.21,8.05
CG4892,DRSC01937,-0.57,-0.3,0.7,-0.25
CG14282,DRSC14763,-0.04,-0.25,0.71,0.05
DJ-1alpha,DRSC07005,-0.21,-0.06,-0.68,0.53
CG10591,DRSC09748,0.98,-0.79,0.79,-0.43
CG14535,DRSC02393,-0.34,-0.05,0.61,0.12
mRpL37 (mitochondrial ribosomal protein L37),DRSC16062,-1.02,0.52,-0.22,1.91
MtnA (Metallothionein A),DRSC21588,0.48,0.02,-0.33,2.29
CG13059,DRSC09942,-0.58,-0.83,0.78,0.03
iPLA2-VIA (calcium-independent phospholipase A2 VIA),DRSC10699,-0.02,0.79,-0.49,0.11
Cul6 (Cullin 6),DRSC09830,-0.61,-0.15,-0.75,-0.03
